Experimental data from article PMC10060354, “Discovery of a small molecule ligand of FRS2 that inhibits invasion and tumor growth” (Cellular Oncology, 2022).
Values joined by “and” are separate entries in the source; they are usually repeats but may differ in a detail not shown here. Equal entries are not always repeated.

Tested on: Caco-2 cells
Assay: CaCo-2 permeability (bi-directional)
Conditions: HBSS/HBSS; pH 7.4/7.4
Description: Caco-2 cells obtained from the ATCC were used between passage numbers 40—60. Cells were seeded onto Millipore Multiscreen Transwell plates at 1 × 10^5 cells/cm^2. The cells were cultured in DMEM and media was changed every two or three days. On day 20, the permeability study was performed. […] Cells were then incubated with HBSS at the desired pH in both apical and basolateral compartments for 40 min to stabilize physiological parameters.
The fluorescent integrity marker lucifer yellow was also included in the dosing solution. Analytical standards were prepared from test compound DMSO dilutions and transferred to buffer, maintaining a 1% v/v DMSO concentration.
For assessment of A-B permeability, HBSS was removed from the apical compartment and replaced with test compound dosing solution. The apical compartment insert was then placed into a companion plate containing fresh buffer (containing 1% v/v DMSO). For assessment of B-A permeability, HBSS was removed from the companion plate and replaced with test compound dosing solution. Fresh buffer (containing 1% v/v DMSO) was added to the apical compartment insert, which was then placed into the companion plate.
Compound permeability was assessed in duplicate. Compounds of known permeability characteristics were run as controls on each assay plate.
Test and control compounds were quantified by LC–MS/MS cassette analysis using a 7-point calibration with appropriate dilution of the samples. The starting concentration (C0) was determined from the dosing solution and the experimental recovery calculated from C0 and both apical and basolateral compartment concentrations. The integrity of the monolayer throughout the experiment was checked by monitoring lucifer yellow permeation using fluorimetric analysis.
The permeability coefficient (Papp) for each compound was calculated from the following equation: Papp=dQ/dtC0×A where dQ/dt was the rate of permeation of the drug across the cells, C0 was the donor compartment concentration at time zero and A was the area of the cell monolayer. C0 was obtained from analysis of the dosing solution.
Efflux ratio (ER) was calculated from mean A-B and B-A data. This was derived from: ER=Papp(B-A)Papp(A-B)

CC(C)NCC(O)COc1ccc(CC(N)=O)cc1 (stereo not shown) [atenolol, reference compound]
Papp A2B Replicate 1: 0.298 10-6 cms-1 and 0.155 10-6 cms-1 and 0.487 10-6 cms-1 | Papp A2B Replicate 2: 0.336 10-6 cms-1 and 0.187 10-6 cms-1 and 0.460 10-6 cms-1 | Papp B2A Replicate 1: 0.785 10-6 cms-1 and 0.251 10-6 cms-1 and 0.885 10-6 cms-1 | Papp B2A Replicate 2: 0.662 10-6 cms-1 and 0.380 10-6 cms-1 and 0.813 10-6 cms-1
